This note sets out measurements from paper PMC8809574.

Experiment [1] addresses T1, TamA-G252C (E. coli) (UniProt P0ADE4).
T1 sequence: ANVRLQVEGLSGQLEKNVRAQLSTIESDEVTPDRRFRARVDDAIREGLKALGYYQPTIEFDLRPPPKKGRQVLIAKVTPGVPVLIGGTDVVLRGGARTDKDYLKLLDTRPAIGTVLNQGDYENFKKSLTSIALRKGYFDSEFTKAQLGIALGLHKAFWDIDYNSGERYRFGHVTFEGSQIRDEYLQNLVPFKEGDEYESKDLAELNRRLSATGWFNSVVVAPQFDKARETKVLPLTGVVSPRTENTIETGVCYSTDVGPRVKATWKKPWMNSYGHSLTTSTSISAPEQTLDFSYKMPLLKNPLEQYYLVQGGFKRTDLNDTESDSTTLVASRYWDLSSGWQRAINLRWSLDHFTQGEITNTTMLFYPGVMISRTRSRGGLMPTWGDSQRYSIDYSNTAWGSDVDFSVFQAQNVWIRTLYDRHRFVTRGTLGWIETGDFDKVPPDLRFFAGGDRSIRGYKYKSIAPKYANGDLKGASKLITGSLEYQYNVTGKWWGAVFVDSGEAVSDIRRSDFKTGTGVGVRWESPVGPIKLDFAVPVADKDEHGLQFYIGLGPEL
Briefly: cross-linking; in situ disulphide cross-linking between introduced cysteines; membranes isolated from E. coli ΔtamA cells co-expressing tolC and tamA variants; total membranes and Triton X-114 aqueous and detergent-enriched phases (also sucrose density fractions 1 and 7) on nonreducing SDS-PAGE, immunoblot with antibodies raised against TamA; control membranes with TamA-G553C and native TolC. (In general: Immunoblotting shows a protein as a band on a membrane.)

Experiment [2] deals with T2, TamA-G553C (E. coli) (UniProt P0ADE4).
T2 sequence: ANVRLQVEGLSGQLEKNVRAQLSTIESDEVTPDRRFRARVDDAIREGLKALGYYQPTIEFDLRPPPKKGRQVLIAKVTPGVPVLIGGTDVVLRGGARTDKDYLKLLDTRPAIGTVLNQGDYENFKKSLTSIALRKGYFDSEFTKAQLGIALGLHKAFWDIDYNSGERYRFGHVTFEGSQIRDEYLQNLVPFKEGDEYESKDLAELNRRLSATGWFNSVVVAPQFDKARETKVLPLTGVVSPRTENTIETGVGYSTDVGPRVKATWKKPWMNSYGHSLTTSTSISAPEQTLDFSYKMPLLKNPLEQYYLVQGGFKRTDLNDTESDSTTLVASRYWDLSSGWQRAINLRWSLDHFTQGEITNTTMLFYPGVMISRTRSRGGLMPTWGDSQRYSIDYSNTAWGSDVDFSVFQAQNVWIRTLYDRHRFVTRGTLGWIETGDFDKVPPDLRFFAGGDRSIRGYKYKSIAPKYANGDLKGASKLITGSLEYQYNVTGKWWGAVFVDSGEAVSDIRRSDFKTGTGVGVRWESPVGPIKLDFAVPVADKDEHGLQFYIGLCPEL
Described as above.

Results are given in words; binding and its absence hold for the method and conditions named. Binding seen in cells or lysates may run through a third protein. Some entries that bind do so weakly or less than the wild type.

B1: TolC-G45C (protein, UniProt P02930 23-493)
chain: ENLMQVYQQARLSNPELRKSAADRDAAFEKINEARSPLLPQLGLCADYTYSNGYRDANGINSNATSASLQLTQSIFDMSKWRALTLQEKAAGIQDVTYQTDQQTLILNTATAYFNVLNAIDVLSYTQAQKEAIYRQLDQTTQRFNVGLVAITDVQNARAQYDTVLANEVTARNNLDNAVEQLRQITGNYYPELAALNVENFKTDKPQPVNALLKEAEKRNLSLLQARLSQDLAREQIRQAQDGHLPTLDLTASTGISDTSYSGSKTRGAAGTQYDDSNMGQNKVGLSFSLPIYQGGMVNSQVKQAQYNFVGASEQLESAHRSVVQTVRSSFNNINASISSINAYKQAVVSAQSSLDAMEAGYSVGTRTIVDVLDATTTLYNAKQELANARYNYLINQLNIKSALGTLNEQDLLALNNALSKPVSTNPENVAPQTPEQNAIADGYAPDSPAPVVQQTSARTTTSNGHNPFRN
As for B1, the binding entry in experiment [1] and in experiment [2] was “binds” each time.

B2: TolC-S68C (protein, UniProt P02930 23-493)
chain: ENLMQVYQQARLSNPELRKSAADRDAAFEKINEARSPLLPQLGLGADYTYSNGYRDANGINSNATSACLQLTQSIFDMSKWRALTLQEKAAGIQDVTYQTDQQTLILNTATAYFNVLNAIDVLSYTQAQKEAIYRQLDQTTQRFNVGLVAITDVQNARAQYDTVLANEVTARNNLDNAVEQLRQITGNYYPELAALNVENFKTDKPQPVNALLKEAEKRNLSLLQARLSQDLAREQIRQAQDGHLPTLDLTASTGISDTSYSGSKTRGAAGTQYDDSNMGQNKVGLSFSLPIYQGGMVNSQVKQAQYNFVGASEQLESAHRSVVQTVRSSFNNINASISSINAYKQAVVSAQSSLDAMEAGYSVGTRTIVDVLDATTTLYNAKQELANARYNYLINQLNIKSALGTLNEQDLLALNNALSKPVSTNPENVAPQTPEQNAIADGYAPDSPAPVVQQTSARTTTSNGHNPFRN
Take B2: the binding result in experiment [1] and in experiment [2] was “binds” throughout.

B3: TolC-S287C (protein, UniProt P02930 23-493)
chain: ENLMQVYQQARLSNPELRKSAADRDAAFEKINEARSPLLPQLGLGADYTYSNGYRDANGINSNATSASLQLTQSIFDMSKWRALTLQEKAAGIQDVTYQTDQQTLILNTATAYFNVLNAIDVLSYTQAQKEAIYRQLDQTTQRFNVGLVAITDVQNARAQYDTVLANEVTARNNLDNAVEQLRQITGNYYPELAALNVENFKTDKPQPVNALLKEAEKRNLSLLQARLSQDLAREQIRQAQDGHLPTLDLTASTGISDTSYSGSKTRGAAGTQYDDSNMGQNKVGLCFSLPIYQGGMVNSQVKQAQYNFVGASEQLESAHRSVVQTVRSSFNNINASISSINAYKQAVVSAQSSLDAMEAGYSVGTRTIVDVLDATTTLYNAKQELANARYNYLINQLNIKSALGTLNEQDLLALNNALSKPVSTNPENVAPQTPEQNAIADGYAPDSPAPVVQQTSARTTTSNGHNPFRN
Regarding B3, the binding result in experiment [1] and in experiment [2] was “binds” each time.

B4: TolC-S253C (protein, UniProt P02930 23-493)
chain: ENLMQVYQQARLSNPELRKSAADRDAAFEKINEARSPLLPQLGLGADYTYSNGYRDANGINSNATSASLQLTQSIFDMSKWRALTLQEKAAGIQDVTYQTDQQTLILNTATAYFNVLNAIDVLSYTQAQKEAIYRQLDQTTQRFNVGLVAITDVQNARAQYDTVLANEVTARNNLDNAVEQLRQITGNYYPELAALNVENFKTDKPQPVNALLKEAEKRNLSLLQARLSQDLAREQIRQAQDGHLPTLDLTACTGISDTSYSGSKTRGAAGTQYDDSNMGQNKVGLSFSLPIYQGGMVNSQVKQAQYNFVGASEQLESAHRSVVQTVRSSFNNINASISSINAYKQAVVSAQSSLDAMEAGYSVGTRTIVDVLDATTTLYNAKQELANARYNYLINQLNIKSALGTLNEQDLLALNNALSKPVSTNPENVAPQTPEQNAIADGYAPDSPAPVVQQTSARTTTSNGHNPFRN
Turning to B4, the binding result in experiment [1] and in experiment [2] was “binds” in each case.

B5: TamA-G252C (protein, UniProt P0ADE4 22-577)
chain: ANVRLQVEGLSGQLEKNVRAQLSTIESDEVTPDRRFRARVDDAIREGLKALGYYQPTIEFDLRPPPKKGRQVLIAKVTPGVPVLIGGTDVVLRGGARTDKDYLKLLDTRPAIGTVLNQGDYENFKKSLTSIALRKGYFDSEFTKAQLGIALGLHKAFWDIDYNSGERYRFGHVTFEGSQIRDEYLQNLVPFKEGDEYESKDLAELNRRLSATGWFNSVVVAPQFDKARETKVLPLTGVVSPRTENTIETGVCYSTDVGPRVKATWKKPWMNSYGHSLTTSTSISAPEQTLDFSYKMPLLKNPLEQYYLVQGGFKRTDLNDTESDSTTLVASRYWDLSSGWQRAINLRWSLDHFTQGEITNTTMLFYPGVMISRTRSRGGLMPTWGDSQRYSIDYSNTAWGSDVDFSVFQAQNVWIRTLYDRHRFVTRGTLGWIETGDFDKVPPDLRFFAGGDRSIRGYKYKSIAPKYANGDLKGASKLITGSLEYQYNVTGKWWGAVFVDSGEAVSDIRRSDFKTGTGVGVRWESPVGPIKLDFAVPVADKDEHGLQFYIGLGPEL
B5: the binding entry in experiment [1] was “binds”.

B6: TamA-G553C (protein, UniProt P0ADE4 22-577)
chain: ANVRLQVEGLSGQLEKNVRAQLSTIESDEVTPDRRFRARVDDAIREGLKALGYYQPTIEFDLRPPPKKGRQVLIAKVTPGVPVLIGGTDVVLRGGARTDKDYLKLLDTRPAIGTVLNQGDYENFKKSLTSIALRKGYFDSEFTKAQLGIALGLHKAFWDIDYNSGERYRFGHVTFEGSQIRDEYLQNLVPFKEGDEYESKDLAELNRRLSATGWFNSVVVAPQFDKARETKVLPLTGVVSPRTENTIETGVGYSTDVGPRVKATWKKPWMNSYGHSLTTSTSISAPEQTLDFSYKMPLLKNPLEQYYLVQGGFKRTDLNDTESDSTTLVASRYWDLSSGWQRAINLRWSLDHFTQGEITNTTMLFYPGVMISRTRSRGGLMPTWGDSQRYSIDYSNTAWGSDVDFSVFQAQNVWIRTLYDRHRFVTRGTLGWIETGDFDKVPPDLRFFAGGDRSIRGYKYKSIAPKYANGDLKGASKLITGSLEYQYNVTGKWWGAVFVDSGEAVSDIRRSDFKTGTGVGVRWESPVGPIKLDFAVPVADKDEHGLQFYIGLCPEL
On to B6, for which the binding entry in experiment [2] is “binds”.
